No constants are given. Whether binding was seen depends on the method and setting. Binding seen in cells or lysates may run through a third protein. Some results given as binding are weak or reduced against the parent protein; the word gives no strength.
Molecular target: T1, forkhead transcription factor FOXM1 (human (endogenous in human breast cell lines)) (UniProt Q08050)
T1 sequence: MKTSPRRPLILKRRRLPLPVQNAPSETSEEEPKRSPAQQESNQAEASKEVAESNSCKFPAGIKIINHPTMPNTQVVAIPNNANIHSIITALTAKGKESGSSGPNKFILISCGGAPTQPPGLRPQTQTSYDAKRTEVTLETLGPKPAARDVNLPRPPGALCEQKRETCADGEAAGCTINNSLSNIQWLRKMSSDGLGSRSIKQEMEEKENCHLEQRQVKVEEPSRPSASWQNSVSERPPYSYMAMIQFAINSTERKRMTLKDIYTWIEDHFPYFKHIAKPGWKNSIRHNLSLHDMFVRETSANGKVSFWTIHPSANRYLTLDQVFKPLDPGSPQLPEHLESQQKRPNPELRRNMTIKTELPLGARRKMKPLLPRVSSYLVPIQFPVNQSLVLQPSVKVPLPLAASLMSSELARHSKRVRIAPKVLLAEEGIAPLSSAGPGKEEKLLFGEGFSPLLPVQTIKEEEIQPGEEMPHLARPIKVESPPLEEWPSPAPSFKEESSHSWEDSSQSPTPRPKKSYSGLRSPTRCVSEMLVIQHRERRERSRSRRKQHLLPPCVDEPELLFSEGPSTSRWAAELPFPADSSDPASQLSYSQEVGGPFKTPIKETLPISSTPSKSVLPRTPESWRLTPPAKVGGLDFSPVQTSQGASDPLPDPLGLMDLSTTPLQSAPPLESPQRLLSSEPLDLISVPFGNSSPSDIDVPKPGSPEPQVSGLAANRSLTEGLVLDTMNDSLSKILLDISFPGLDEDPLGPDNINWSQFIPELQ
Test: co-IP; nuclear co-immunoprecipitation kit (Active Motif); pull-down with anti-FOXM1 (Santa Cruz sc-502); low or high immunoprecipitation buffers with 1X protease inhibitor cocktail and 1 mM DTT; detection by western blot

Sequences of proteins named here, by UniProt entry; tags and fusion partners are left off.
UniProt P03372: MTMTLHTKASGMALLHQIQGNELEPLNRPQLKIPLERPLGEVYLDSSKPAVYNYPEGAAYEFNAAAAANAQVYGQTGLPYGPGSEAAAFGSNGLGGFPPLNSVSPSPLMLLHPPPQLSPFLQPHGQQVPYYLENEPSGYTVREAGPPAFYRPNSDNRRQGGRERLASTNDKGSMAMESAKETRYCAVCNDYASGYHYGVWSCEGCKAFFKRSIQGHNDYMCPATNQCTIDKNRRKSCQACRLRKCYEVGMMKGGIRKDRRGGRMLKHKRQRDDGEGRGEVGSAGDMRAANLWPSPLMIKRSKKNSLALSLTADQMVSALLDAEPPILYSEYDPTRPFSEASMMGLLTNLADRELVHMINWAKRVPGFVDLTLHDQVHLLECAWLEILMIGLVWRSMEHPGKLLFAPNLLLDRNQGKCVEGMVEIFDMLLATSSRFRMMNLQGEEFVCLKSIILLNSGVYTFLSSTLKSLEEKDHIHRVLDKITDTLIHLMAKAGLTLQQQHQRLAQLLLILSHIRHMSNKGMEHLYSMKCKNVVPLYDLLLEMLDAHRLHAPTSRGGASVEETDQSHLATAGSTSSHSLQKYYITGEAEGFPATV

“estrogen receptor alpha (from UniProt P03372 1-595)” was tested, and the binding was “binds”.

Reference: paper PMC3663086
